Consider two compounds from the supplement of paper PMC11732987, “Enantioselective OTUD7B fragment discovery through chemoproteomics screening and high-throughput optimisation” (Communications Chemistry, 2025).

The list shows a part of the results. The data scatter; read single values as rough.

For the first assay, the target named is T1, BMS1 C317 (UniProt Q14692).
T1 sequence (whole entry): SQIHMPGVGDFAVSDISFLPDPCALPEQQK
Put plainly: log2 mean competition ratio of IA-DTB cysteine labelling (DMSO/compound) (log2 ratio); higher = stronger cysteine engagement by compound. Particulars: 50 µM; treatment time: 4 h; cell line lysate: HEK293T. As to the method:
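IA-DTB competitive cysteine chemoproteomics in HEK293T RIPA lysate. Lysates were treated with compound 29 or 30 at 50 or 200 µM for 4 h, then IA-DTB (500 µM, 1 h), trypsin-digested, NeutrAvidin-enriched and analysed by diaPASEF. Competition ratio = intensity DMSO / intensity compound (n=4 treated, n=64 DMSO); binding: mean log2 CR ≥ 1 and p ≤ 0.05 plus QC filters. Target is the cysteine site.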
As for `O=C(CCl)N[C@H]1CCCc2ccccc21`, the “log2 mean competition ratio” value is -0.279.

As to `O=C(CCl)N[C@@H]1CCCc2ccccc21`, the “log2 mean competition ratio” value turned out to be 0.537.

The assay is the same for the next values; noted with them: 200 µM; treatment time: 4 h; cell line lysate: HEK293T.
`O=C(CCl)N[C@H]1CCCc2ccccc21`: the “log2 mean competition ratio” value stood at 0.37.

For `O=C(CCl)N[C@@H]1CCCc2ccccc21`, the “log2 mean competition ratio” value was found to be 0.274.
